Where a chain is given by its changes, count along the chain named. Results are given in words; binding and its absence hold for the method and conditions named. Binding seen in cells or lysates may run through a third protein. Some binding calls cover weakened binding; strength is not graded here. Where a sequence is shown, tags or fusion partners need not be part of it.
Columns and labels:
FLAG-tagged S349D CRTC2 = biological target: T1, FLAG-tagged S349D CRTC2 (UniProt Q3U182); experiment: co-IP; AML12 cells transfected with FLAG-tagged CRTC2 plasmids, treated with vehicle or cAMP (8-Br-cAMP) for 1 hour; lysates incubated with magnetic FLAG beads in PP1 homogenization buffer (50 mM HEPES pH 7.2, 2 mM EDTA, 0.2% β-mercaptoethanol, 2 mg/mL glycogen); washed 3 times; blot for CREB
T1 sequence: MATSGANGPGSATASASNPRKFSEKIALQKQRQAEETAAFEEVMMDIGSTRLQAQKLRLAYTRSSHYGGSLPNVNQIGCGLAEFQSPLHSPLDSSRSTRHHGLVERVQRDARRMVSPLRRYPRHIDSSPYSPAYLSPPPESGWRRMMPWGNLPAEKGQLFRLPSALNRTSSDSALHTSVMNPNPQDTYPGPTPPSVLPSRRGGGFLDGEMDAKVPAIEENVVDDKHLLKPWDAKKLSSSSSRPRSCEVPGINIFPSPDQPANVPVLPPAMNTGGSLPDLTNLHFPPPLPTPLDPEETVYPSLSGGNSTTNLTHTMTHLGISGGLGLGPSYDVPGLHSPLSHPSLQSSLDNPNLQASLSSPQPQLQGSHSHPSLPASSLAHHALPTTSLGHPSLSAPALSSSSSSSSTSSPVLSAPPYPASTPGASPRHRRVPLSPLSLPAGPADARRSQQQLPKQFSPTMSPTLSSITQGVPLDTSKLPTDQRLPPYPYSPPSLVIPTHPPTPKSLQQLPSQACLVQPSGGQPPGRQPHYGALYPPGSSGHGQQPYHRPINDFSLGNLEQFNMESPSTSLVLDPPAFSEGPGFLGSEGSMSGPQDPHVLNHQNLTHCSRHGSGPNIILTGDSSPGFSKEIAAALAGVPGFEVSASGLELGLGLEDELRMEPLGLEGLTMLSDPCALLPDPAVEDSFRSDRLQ

Sequences of proteins named here, by UniProt entry; tags and fusion partners are left off.
UniProt Q01147: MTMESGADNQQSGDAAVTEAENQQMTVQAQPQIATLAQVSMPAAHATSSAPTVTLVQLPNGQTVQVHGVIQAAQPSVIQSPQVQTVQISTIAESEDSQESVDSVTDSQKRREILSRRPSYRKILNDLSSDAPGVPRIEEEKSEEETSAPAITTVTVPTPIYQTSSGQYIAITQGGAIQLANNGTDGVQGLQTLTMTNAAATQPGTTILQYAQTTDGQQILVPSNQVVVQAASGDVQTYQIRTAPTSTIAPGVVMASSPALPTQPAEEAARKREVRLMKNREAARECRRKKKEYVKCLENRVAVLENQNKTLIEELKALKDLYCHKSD

[1] = biological target: T2, FLAG-tagged WT CREB-regulated transcriptional coactivator 2 (CRTC2) (UniProt Q3U182); experiment: as above
T2 sequence: T1 sequence with D349S

Substance: cAMP-responsive element-binding protein (CREB) (from UniProt Q01147 1-327)
- binding (FLAG-tagged S349D CRTC2): binds
- binding [1]: binds

From paper PMC12126231
